No constants are given. Whether binding was seen depends on the method and setting. Binding seen in cells or lysates may run through a third protein. Some results given as binding are weak or reduced against the parent protein; the word gives no strength. One block for each binder: values may come before it.
Biological target: T1, Smad4 (human (endogenous in PANC-1)), Q13485
T1 chain: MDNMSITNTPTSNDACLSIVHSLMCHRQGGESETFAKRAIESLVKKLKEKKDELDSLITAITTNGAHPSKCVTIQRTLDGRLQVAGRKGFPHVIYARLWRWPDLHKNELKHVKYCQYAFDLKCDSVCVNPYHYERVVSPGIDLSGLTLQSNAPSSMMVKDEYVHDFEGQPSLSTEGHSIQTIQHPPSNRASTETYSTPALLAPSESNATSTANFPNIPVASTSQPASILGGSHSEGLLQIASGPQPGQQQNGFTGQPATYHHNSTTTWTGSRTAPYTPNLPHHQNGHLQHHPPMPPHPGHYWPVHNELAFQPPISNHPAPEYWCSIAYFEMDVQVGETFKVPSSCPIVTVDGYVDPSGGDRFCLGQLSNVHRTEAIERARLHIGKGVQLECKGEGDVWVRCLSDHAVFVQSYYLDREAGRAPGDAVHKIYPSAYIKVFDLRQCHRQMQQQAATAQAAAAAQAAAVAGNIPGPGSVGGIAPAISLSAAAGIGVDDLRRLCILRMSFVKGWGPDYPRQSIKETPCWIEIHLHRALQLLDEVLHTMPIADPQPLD
Assay: co-IP; PANC-1 cells treated with TGF-β (10 ng/mL, 1 h); which protein was precipitated is not told; no co-IP protocol in the methods
Conditions: remark: other sources report otherwise

binding: binds
B1: Smad3, P84022 1-425 (protein)
chain: MSSILPFTPPIVKRLLGWKKGEQNGQEEKWCEKAVKSLVKKLKKTGQLDELEKAITTQNVNTKCITIPRSLDGRLQVSHRKGLPHVIYCRLWRWPDLHSHHELRAMELCEFAFNMKKDEVCVNPYHYQRVETPVLPPVLVPRHTEIPAEFPPLDDYSHSIPENTNFPAGIEPQSNIPETPPPGYLSEDGETSDHQMNHSMDAGSPNLSPNPMSPAHNNLDLQPVTYCEPAFWCSISYYELNQRVGETFHASQPSMTVDGFTDPSNSERFCLGLLSNVNRNAAVELTRRHIGRGVRLYYIGGEVFAECLSDSAIFVQSPNCNQRYGWHPATVCKIPPGCNLKIFNNQEFAALLAQSVNQGFEAVYQLTRMCTIRMSFVKGWGAEYRRQTVTSTPCWIELHLNGPLQWLDKVLTQMGSPSIRCSSVS

binding: binds
B2: Smad2, Q15796 1-467 (protein)
chain: MSSILPFTPPVVKRLLGWKKSAGGSGGAGGGEQNGQEEKWCEKAVKSLVKKLKKTGRLDELEKAITTQNCNTKCVTIPSTCSEIWGLSTPNTIDQWDTTGLYSFSEQTRSLDGRLQVSHRKGLPHVIYCRLWRWPDLHSHHELKAIENCEYAFNLKKDEVCVNPYHYQRVETPVLPPVLVPRHTEILTELPPLDDYTHSIPENTNFPAGIEPQSNYIPETPPPGYISEDGETSDQQLNQSMDTGSPAELSPTTLSPVNHSLDLQPVTYSEPAFWCSIAYYELNQRVGETFHASQPSLTVDGFTDPSNSERFCLGLLSNVNRNATVEMTRRHIGRGVRLYYIGGEVFAECLSDSAIFVQSPNCNQRYGWHPATVCKIPPGCNLKIFNNQEFAALLAQSVNQGFEAVYQLTRMCTIRMSFVKGWGAEYRRQTVTSTPCWIELHLNGPLQWLDKVLTQMGSPSVRCSSMS

From PMC6683473
